The record followed here is PMC4306142, “Structure of mycobacterial maltokinase, the missing link in the essential GlgE-pathway” (Scientific Reports, 2015).

Protein sequences, listed by entry. Tags and fused reporters are not part of them.
UniProt A1TH50: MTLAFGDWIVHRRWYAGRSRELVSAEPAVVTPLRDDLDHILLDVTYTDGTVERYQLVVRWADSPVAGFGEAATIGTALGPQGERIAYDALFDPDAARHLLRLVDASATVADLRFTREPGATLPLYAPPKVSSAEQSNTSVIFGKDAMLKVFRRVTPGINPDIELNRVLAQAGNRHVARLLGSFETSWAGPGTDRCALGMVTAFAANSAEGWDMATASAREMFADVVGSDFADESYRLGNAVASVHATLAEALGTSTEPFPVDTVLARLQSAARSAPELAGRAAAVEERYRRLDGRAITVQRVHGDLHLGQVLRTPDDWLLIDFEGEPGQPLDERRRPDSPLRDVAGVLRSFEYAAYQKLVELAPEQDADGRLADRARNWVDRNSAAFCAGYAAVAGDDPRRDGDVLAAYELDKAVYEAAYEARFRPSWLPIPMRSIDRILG

These are yes or no findings as the source states them, for the method shown.

This test deals with Mycobacterium vanbaalenii maltokinase (Mak^Mvan) (Mycobacterium vanbaalenii PYR-1) (UniProt A1TH50). As to the kind of experiment: SEC; Superdex 12 10/300 GL column; fractions pooled after HisPrep and Resource Q, in 50 mM BTP pH 7.4, 50 mM NaCl; both purified.

As for “Mycobacterium vanbaalenii maltokinase (Mak^Mvan) (from UniProt A1TH50 1-441) (enzyme)”, the binding entry is recorded as “no binding”.
